Measurements reported in PubChem BioAssay AID1224829 (NIAID, 2016).
Shown is a random part of about 3,800 deposited reagents. 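Calls cover raised and lowered translocation; gene median uses one vendor's three siRNAs; qiagen siRNAs acted more weakly than ambion siRNAs.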 Unmarked entries are inactive. Reagents against one gene are numbered here. Reagent sequences are not shown.

Screen: 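Follow-up of TLR4-NF-kappaB regulators using six separate siRNAs for each gene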 (follow-up of hits)
Cell system: mouse RAW264.7 G9 macrophage reporter cells
Reagents: single siRNA against mouse genes, 100 nM
Duration: 2 days of siRNA knock-down, then 40 min of LPS before fixing
Challenge: LPS (Salmonella minnesota R595) at 10 ng/ml
Measured: 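High-content images after 40 min LPS exposure; GFP-p65 nucleus to surrounding ring signal ratio, normalised to plate median and non-targeting control wells, expressed as z-score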
Direction: p65 translocation z-score and gene median z-score, per vendor: higher = more nuclear NF-kappaB p65 after LPS
Active means: 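Active means the replicate-mean z-score lies beyond plus or minus 2, in either direction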
Calls: active = changed p65 translocation (either direction); inactive = no clear change

Mobp (myelin-associated oligodendrocytic basic protein) #1, siRNA vendor or control pool ambion single siRNA | p65 translocation z-score, replicate mean: 2.78 (active); p65 translocation z-score, replicate 1: 4.23; p65 translocation z-score, replicate 2: 1.32; gene median z-score, per vendor: -0.973
Mobp (myelin-associated oligodendrocytic basic protein) #2, siRNA vendor or control pool ambion single siRNA | p65 translocation z-score, replicate mean: -1.7; p65 translocation z-score, replicate 1: -0.635; p65 translocation z-score, replicate 2: -2.76; gene median z-score, per vendor: -0.973
Mobp (myelin-associated oligodendrocytic basic protein) #3, siRNA vendor or control pool ambion single siRNA | p65 translocation z-score, replicate mean: -3.28 (active); p65 translocation z-score, replicate 1: -1.31; p65 translocation z-score, replicate 2: -5.25; gene median z-score, per vendor: -0.973
Rdh16f2 (RDH16 family member 2) #1, siRNA vendor or control pool ambion single siRNA | p65 translocation z-score, replicate mean: 1.88; p65 translocation z-score, replicate 1: 0.843; p65 translocation z-score, replicate 2: 2.92; gene median z-score, per vendor: -1.23
Rdh16f2 (RDH16 family member 2) #2, siRNA vendor or control pool ambion single siRNA | p65 translocation z-score, replicate mean: -2.02 (active); p65 translocation z-score, replicate 1: -1.33; p65 translocation z-score, replicate 2: -2.71; gene median z-score, per vendor: -1.23
Rdh16f2 (RDH16 family member 2) #3, siRNA vendor or control pool ambion single siRNA | p65 translocation z-score, replicate mean: -1.9; p65 translocation z-score, replicate 1: -2.67; p65 translocation z-score, replicate 2: -1.13; gene median z-score, per vendor: -1.23
Rdh16f2 (RDH16 family member 2) #4, siRNA vendor or control pool qiagen single siRNA | p65 translocation z-score, replicate mean: -2.44 (active); p65 translocation z-score, replicate 1: -2.64; p65 translocation z-score, replicate 2: -2.24; gene median z-score, per vendor: -2.16
Rdh16f2 (RDH16 family member 2) #5, siRNA vendor or control pool qiagen single siRNA | p65 translocation z-score, replicate mean: -2.16 (active); p65 translocation z-score, replicate 1: -2.19; p65 translocation z-score, replicate 2: -2.13; gene median z-score, per vendor: -2.16
Rdh16f2 (RDH16 family member 2) #6, siRNA vendor or control pool qiagen single siRNA | p65 translocation z-score, replicate mean: -0.0559; p65 translocation z-score, replicate 1: -1.13; p65 translocation z-score, replicate 2: 1.01; gene median z-score, per vendor: -2.16
Hmox2 (heme oxygenase 2) #1, siRNA vendor or control pool ambion single siRNA | p65 translocation z-score, replicate mean: -1.14; p65 translocation z-score, replicate 1: -1.58; p65 translocation z-score, replicate 2: -0.713; gene median z-score, per vendor: -1.07
Hmox2 (heme oxygenase 2) #2, siRNA vendor or control pool ambion single siRNA | p65 translocation z-score, replicate mean: -1.93; p65 translocation z-score, replicate 1: -2.43; p65 translocation z-score, replicate 2: -1.43; gene median z-score, per vendor: -1.07
Hmox2 (heme oxygenase 2) #3, siRNA vendor or control pool ambion single siRNA | p65 translocation z-score, replicate mean: 1.34; p65 translocation z-score, replicate 1: 2.76; p65 translocation z-score, replicate 2: -0.0787; gene median z-score, per vendor: -1.07
Hmox2 (heme oxygenase 2) #4, siRNA vendor or control pool qiagen single siRNA | p65 translocation z-score, replicate mean: 0.819; p65 translocation z-score, replicate 1: 0.0144; p65 translocation z-score, replicate 2: 1.62; gene median z-score, per vendor: 0.0144
Hmox2 (heme oxygenase 2) #5, siRNA vendor or control pool qiagen single siRNA | p65 translocation z-score, replicate mean: -1.66; p65 translocation z-score, replicate 1: -1.66; gene median z-score, per vendor: 0.0144
Hmox2 (heme oxygenase 2) #6, siRNA vendor or control pool qiagen single siRNA | p65 translocation z-score, replicate mean: 0.0607; p65 translocation z-score, replicate 1: -0.407; p65 translocation z-score, replicate 2: 0.529; gene median z-score, per vendor: 0.0144
Cct7 (chaperonin containing TCP1 subunit 7) #1, siRNA vendor or control pool ambion single siRNA | p65 translocation z-score, replicate mean: -7.08 (active); p65 translocation z-score, replicate 1: -7.11; p65 translocation z-score, replicate 2: -7.05; gene median z-score, per vendor: -4.17
Cct7 (chaperonin containing TCP1 subunit 7) #2, siRNA vendor or control pool ambion single siRNA | p65 translocation z-score, replicate mean: -4.17 (active); p65 translocation z-score, replicate 1: -4.17; gene median z-score, per vendor: -4.17
Cct7 (chaperonin containing TCP1 subunit 7) #3, siRNA vendor or control pool ambion single siRNA | p65 translocation z-score, replicate mean: -0.328; p65 translocation z-score, replicate 1: -0.97; p65 translocation z-score, replicate 2: 0.314; gene median z-score, per vendor: -4.17
Cct7 (chaperonin containing TCP1 subunit 7) #4, siRNA vendor or control pool qiagen single siRNA | p65 translocation z-score, replicate mean: -0.429; p65 translocation z-score, replicate 1: -0.432; p65 translocation z-score, replicate 2: -0.427; gene median z-score, per vendor: -0.429
Cct7 (chaperonin containing TCP1 subunit 7) #5, siRNA vendor or control pool qiagen single siRNA | p65 translocation z-score, replicate mean: -1.29; p65 translocation z-score, replicate 1: -1.3; p65 translocation z-score, replicate 2: -1.28; gene median z-score, per vendor: -0.429
Cct7 (chaperonin containing TCP1 subunit 7) #6, siRNA vendor or control pool qiagen single siRNA | p65 translocation z-score, replicate mean: 0.415; p65 translocation z-score, replicate 1: -0.103; p65 translocation z-score, replicate 2: 0.932; gene median z-score, per vendor: -0.429
Or5ar1 (olfactory receptor family 5 subfamily AR member 1) #1, siRNA vendor or control pool ambion single siRNA | p65 translocation z-score, replicate mean: -2.2 (active); p65 translocation z-score, replicate 1: -2.42; p65 translocation z-score, replicate 2: -1.98; gene median z-score, per vendor: -2.71
Or5ar1 (olfactory receptor family 5 subfamily AR member 1) #2, siRNA vendor or control pool ambion single siRNA | gene median z-score, per vendor: -2.71
Or5ar1 (olfactory receptor family 5 subfamily AR member 1) #3, siRNA vendor or control pool ambion single siRNA | p65 translocation z-score, replicate mean: -3.03 (active); p65 translocation z-score, replicate 1: -3.06; p65 translocation z-score, replicate 2: -2.99; gene median z-score, per vendor: -2.71
Or5ar1 (olfactory receptor family 5 subfamily AR member 1) #4, siRNA vendor or control pool qiagen single siRNA | p65 translocation z-score, replicate mean: -0.183; p65 translocation z-score, replicate 1: -0.213; p65 translocation z-score, replicate 2: -0.154; gene median z-score, per vendor: -1.13
Or5ar1 (olfactory receptor family 5 subfamily AR member 1) #5, siRNA vendor or control pool qiagen single siRNA | p65 translocation z-score, replicate mean: -4.68 (active); p65 translocation z-score, replicate 1: -3.99; p65 translocation z-score, replicate 2: -5.36; gene median z-score, per vendor: -1.13
Or5ar1 (olfactory receptor family 5 subfamily AR member 1) #6, siRNA vendor or control pool qiagen single siRNA | p65 translocation z-score, replicate mean: -0.715; p65 translocation z-score, replicate 1: -2.04; p65 translocation z-score, replicate 2: 0.613; gene median z-score, per vendor: -1.13
Dync1i2 (dynein cytoplasmic 1 intermediate chain 2) #1, siRNA vendor or control pool ambion single siRNA | p65 translocation z-score, replicate mean: 0.339; p65 translocation z-score, replicate 1: 0.189; p65 translocation z-score, replicate 2: 0.489; gene median z-score, per vendor: 0.189
Dync1i2 (dynein cytoplasmic 1 intermediate chain 2) #2, siRNA vendor or control pool ambion single siRNA | p65 translocation z-score, replicate mean: -0.599; p65 translocation z-score, replicate 1: 0.222; p65 translocation z-score, replicate 2: -1.42; gene median z-score, per vendor: 0.189
Dync1i2 (dynein cytoplasmic 1 intermediate chain 2) #3, siRNA vendor or control pool ambion single siRNA | p65 translocation z-score, replicate mean: -3.68 (active); p65 translocation z-score, replicate 1: -3.68; gene median z-score, per vendor: 0.189
Dync1i2 (dynein cytoplasmic 1 intermediate chain 2) #4, siRNA vendor or control pool qiagen single siRNA | p65 translocation z-score, replicate mean: -1.63; p65 translocation z-score, replicate 1: -1.83; p65 translocation z-score, replicate 2: -1.44; gene median z-score, per vendor: -1.66
Dync1i2 (dynein cytoplasmic 1 intermediate chain 2) #5, siRNA vendor or control pool qiagen single siRNA | p65 translocation z-score, replicate mean: -4.13 (active); p65 translocation z-score, replicate 1: -6.59; p65 translocation z-score, replicate 2: -1.66; gene median z-score, per vendor: -1.66
Dync1i2 (dynein cytoplasmic 1 intermediate chain 2) #6, siRNA vendor or control pool qiagen single siRNA | p65 translocation z-score, replicate mean: -0.27; p65 translocation z-score, replicate 1: -0.27; gene median z-score, per vendor: -1.66
Ube3c (ubiquitin protein ligase E3C) #1, siRNA vendor or control pool ambion single siRNA | p65 translocation z-score, replicate mean: -0.604; p65 translocation z-score, replicate 1: -0.499; p65 translocation z-score, replicate 2: -0.708; gene median z-score, per vendor: -1.56
Ube3c (ubiquitin protein ligase E3C) #2, siRNA vendor or control pool ambion single siRNA | p65 translocation z-score, replicate mean: -1.8; p65 translocation z-score, replicate 1: -2.04; p65 translocation z-score, replicate 2: -1.56; gene median z-score, per vendor: -1.56
Ube3c (ubiquitin protein ligase E3C) #3, siRNA vendor or control pool ambion single siRNA | p65 translocation z-score, replicate mean: -3.9 (active); p65 translocation z-score, replicate 1: -3.9; gene median z-score, per vendor: -1.56
Ube3c (ubiquitin protein ligase E3C) #4, siRNA vendor or control pool qiagen single siRNA | p65 translocation z-score, replicate mean: 0.712; p65 translocation z-score, replicate 1: -0.362; p65 translocation z-score, replicate 2: 1.79; gene median z-score, per vendor: -1.85
Ube3c (ubiquitin protein ligase E3C) #5, siRNA vendor or control pool qiagen single siRNA | p65 translocation z-score, replicate mean: -2.14 (active); p65 translocation z-score, replicate 1: -1.39; p65 translocation z-score, replicate 2: -2.89; gene median z-score, per vendor: -1.85
Ube3c (ubiquitin protein ligase E3C) #6, siRNA vendor or control pool qiagen single siRNA | p65 translocation z-score, replicate mean: -3.57 (active); p65 translocation z-score, replicate 1: -2.3; p65 translocation z-score, replicate 2: -4.85; gene median z-score, per vendor: -1.85
